Experimental data: PubChem BioAssay AID1259308 (NCATS, 2017)
Assay: 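Knock-downs that increase output of a recombinant reporter protein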 (primary screen). Cells: human HEK293 embryonic kidney cells stably expressing firefly luciferase (HEK-CMV-Luc2-Hygro). Reagents: single siRNA against human genes, 0.8 pmol siRNA per well. Timing: 72 h. Measured: 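Luciferase light (ONE-Glo) measured on one replicate plate set and viability (CellTiter-Glo) on the other, scaled to a negative control siRNA, with robust z-scores and luciferase per cell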. Reading the numbers: total luciferase, z-score and total luciferase, % of control: higher = more reporter protein produced; luciferase per cell, z-score: higher = more reporter output per viable cell; viable cells, % of control: higher = more viable cells. Rule for the call: 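An siRNA counts as active if its total luciferase robust z-score exceeds 3; genes with two or more such siRNAs out of three were retested with fresh siRNAs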. Meaning of the calls: active = raised luciferase; inactive = no rise.
The whole screen tested about 59,000 reagents; below is a part drawn at random. About 1,510 of all reagents (2.6%) were called active. 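Calls use total luciferase alone and ignore viability, so some active siRNAs may act by altering cell number.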 Reagents against one gene are numbered here. No sequences are given here.

| target gene | siRNA no. | total luciferase, z-score | total luciferase, % of control | luciferase per cell, z-score | viable cells, % of control | activity call |
| --- | --- | --- | --- | --- | --- | --- |
| GRK1 (G protein-coupled receptor kinase 1) | 1 | -0.757 | 66.8 | -0.397 | 82.9 | inactive |
| GRK1 (G protein-coupled receptor kinase 1) | 2 | -0.0943 | 80 | -0.711 | 108 | inactive |
| GRK1 (G protein-coupled receptor kinase 1) | 3 | 1.45 | 111 | 1.27 | 88.6 | inactive |
| ZNF148 (zinc finger protein 148) | 1 | -0.65 | 69 | -1.13 | 104 | inactive |
| ZNF148 (zinc finger protein 148) | 2 | -0.0122 | 81.6 | -0.239 | 97.2 | inactive |
| ZNF148 (zinc finger protein 148) | 3 | 2.7 | 136 | 2.35 | 81.7 | inactive |
| GTF2IP3 (general transcription factor IIi pseudogene 3) | 1 | 0.908 | 99.9 | 0.606 | 95.2 | inactive |
| GTF2IP3 (general transcription factor IIi pseudogene 3) | 2 | 0.555 | 92.9 | 0.457 | 92.1 | inactive |
| GTF2IP3 (general transcription factor IIi pseudogene 3) | 3 | -1.68 | 48.6 | -1.86 | 88.5 | inactive |
| LOC727978 (retired record) | 1 | -0.324 | 75.4 | -1.22 | 116 | inactive |
| LOC727978 (retired record) | 2 | 0.0761 | 83.4 | 0.524 | 81.2 | inactive |
| LOC727978 (retired record) | 3 | 0.338 | 88.6 | 0.656 | 83.3 | inactive |
| TATDN2 (TatD DNase domain containing 2) | 1 | -0.767 | 66.6 | -0.801 | 92 | inactive |
| TATDN2 (TatD DNase domain containing 2) | 2 | -0.137 | 79.2 | 0.0427 | 87.5 | inactive |
| TATDN2 (TatD DNase domain containing 2) | 3 | 0.752 | 96.8 | 0.493 | 95 | inactive |
| TUBBP2 (tubulin beta pseudogene 2) | 1 | -0.965 | 62.7 | -1.45 | 103 | inactive |
| TUBBP2 (tubulin beta pseudogene 2) | 2 | -0.241 | 77.1 | 0.505 | 75.4 | inactive |
| TUBBP2 (tubulin beta pseudogene 2) | 3 | 0.0987 | 83.9 | 0.912 | 73.7 | inactive |
| EMC2 (ER membrane protein complex subunit 2) | 1 | -0.943 | 63.1 | -1.24 | 97.8 | inactive |
| EMC2 (ER membrane protein complex subunit 2) | 2 | 0.0254 | 82.4 | 0.07 | 90.4 | inactive |
| EMC2 (ER membrane protein complex subunit 2) | 3 | -0.0018 | 81.9 | 0.0738 | 89.7 | inactive |
| ZNF26 (zinc finger protein 26) | 1 | 1.64 | 114 | 0.84 | 102 | inactive |
| ZNF26 (zinc finger protein 26) | 2 | -0.533 | 71.3 | -0.736 | 96.7 | inactive |
| ZNF26 (zinc finger protein 26) | 3 | -0.146 | 79 | -0.123 | 91.2 | inactive |
| LMBR1 (limb development membrane protein 1) | 1 | 0.626 | 94.3 | 0.327 | 96.7 | inactive |
| LMBR1 (limb development membrane protein 1) | 2 | -0.787 | 66.2 | -1.21 | 102 | inactive |
| LMBR1 (limb development membrane protein 1) | 3 | 0.185 | 85.6 | -0.0985 | 98.1 | inactive |
| ZNF610 (zinc finger protein 610) | 1 | -0.524 | 71.5 | -0.088 | 81.7 | inactive |
| ZNF610 (zinc finger protein 610) | 2 | -0.075 | 80.4 | 0.912 | 70.7 | inactive |
| ZNF610 (zinc finger protein 610) | 3 | 0.882 | 99.4 | 0.175 | 106 | inactive |
| CASP16P (caspase 16, pseudogene) | 1 | -0.565 | 70.6 | -1.31 | 111 | inactive |
| CASP16P (caspase 16, pseudogene) | 2 | 0.44 | 90.6 | 0.66 | 85.1 | inactive |
| CASP16P (caspase 16, pseudogene) | 3 | -0.495 | 72 | -0.873 | 101 | inactive |
| HS6ST3 (heparan sulfate 6-O-sulfotransferase 3) | 1 | 1.8 | 118 | 1.71 | 83.9 | inactive |
| HS6ST3 (heparan sulfate 6-O-sulfotransferase 3) | 2 | 1.01 | 102 | 0.235 | 107 | inactive |
| HS6ST3 (heparan sulfate 6-O-sulfotransferase 3) | 3 | 0.0759 | 83.4 | -0.592 | 109 | inactive |

A stretch taken from the entries so far:
| target gene | siRNA no. | total luciferase, z-score | total luciferase, % of control | luciferase per cell, z-score | viable cells, % of control | activity call |
| --- | --- | --- | --- | --- | --- | --- |
| LMBR1 (limb development membrane protein 1) | 1 | 0.626 | 94.3 | 0.327 | 96.7 | inactive |
| LMBR1 (limb development membrane protein 1) | 2 | -0.787 | 66.2 | -1.21 | 102 | inactive |
| LMBR1 (limb development membrane protein 1) | 3 | 0.185 | 85.6 | -0.0985 | 98.1 | inactive |
| ZNF610 (zinc finger protein 610) | 1 | -0.524 | 71.5 | -0.088 | 81.7 | inactive |

Further reagents follow.
| target gene | siRNA no. | total luciferase, z-score | total luciferase, % of control | luciferase per cell, z-score | viable cells, % of control | activity call |
| --- | --- | --- | --- | --- | --- | --- |
| ALKBH1 (alkB homolog 1, histone H2A dioxygenase) | 1 | 1.49 | 111 | 0.499 | 109 | inactive |
| ALKBH1 (alkB homolog 1, histone H2A dioxygenase) | 2 | -0.466 | 72.6 | -0.357 | 89.1 | inactive |
| ALKBH1 (alkB homolog 1, histone H2A dioxygenase) | 3 | 1.35 | 109 | 0.509 | 106 | inactive |
| MFAP1 (microfibril associated protein 1) | 1 | 0.162 | 85.1 | 1.39 | 65.9 | inactive |
| MFAP1 (microfibril associated protein 1) | 2 | -0.0764 | 80.4 | 2.4 | 47.7 | inactive |
| MFAP1 (microfibril associated protein 1) | 3 | 0.185 | 85.6 | 1.77 | 60.1 | inactive |
| TTLL8 (tubulin tyrosine ligase like 8) | 1 | -0.71 | 67.8 | 0.199 | 71.9 | inactive |
| TTLL8 (tubulin tyrosine ligase like 8) | 2 | 0.75 | 96.8 | 0.726 | 89.4 | inactive |
| TTLL8 (tubulin tyrosine ligase like 8) | 3 | -3.95 | 3.29 | -6.27 | 19.2 | inactive |
| MLNR (motilin receptor) | 1 | 0.119 | 84.2 | -0.125 | 97.3 | inactive |
| MLNR (motilin receptor) | 2 | -0.485 | 72.2 | -0.714 | 97.4 | inactive |
| MLNR (motilin receptor) | 3 | -1.27 | 56.6 | -1.22 | 87.3 | inactive |
| C5AR2 (complement C5a receptor 2) | 1 | 2.97 | 141 | 1.44 | 108 | inactive |
| C5AR2 (complement C5a receptor 2) | 2 | 0.228 | 86.4 | -0.762 | 118 | inactive |
| C5AR2 (complement C5a receptor 2) | 3 | 0.913 | 100 | 0.147 | 108 | inactive |
| EXOC2 (exocyst complex component 2) | 1 | 0.17 | 85.3 | 0.362 | 86.6 | inactive |
| EXOC2 (exocyst complex component 2) | 2 | -0.443 | 73.1 | -0.876 | 103 | inactive |
| EXOC2 (exocyst complex component 2) | 3 | 0.613 | 94.1 | 0.513 | 91.8 | inactive |
| MYRFL (myelin regulatory factor like) | 1 | -2.8 | 26.3 | -4.1 | 86.4 | inactive |
| MYRFL (myelin regulatory factor like) | 2 | 1.14 | 105 | 0.773 | 95.3 | inactive |
| MYRFL (myelin regulatory factor like) | 3 | -1.11 | 59.8 | -0.84 | 83.4 | inactive |
